Data on one compound can be found in patent publication US4710497A, “Method for percutaneously administering physiologically active agents” (Nitto Electric Industrial Co., Ltd., priority 1985, dated 1987).

One series can be described thus: in vivo. To be noted: rhesus monkey. The method, then:
Male rhesus monkeys weighing 10-14 Kg each were used as the subject. An appropriate area of the monkey's chest was shaved 24 hours before drug application.
Drug formulations comprising the PEAC were applied to a certain area of the chest as indicated in each example. The monkey was restrained in a chair to prevent it from touching its chest.
Blood samples were taken at appropriate intervals after the application. The heparinized blood was centrifuged, and the plasma was removed and stored at -20° C. until analyzed. […]
To this solution was added 120 mg of Klucel® (cross-linked hydroxypropylcellulose type HF, Hercules Inc.) and the same stirred thoroughly to obtain a uniform gel.
1.0 ml of the gel was applied to 49 cm^2 of the chest area of the monkey; the applied area was left open to the air for the duration of the experiment.
In all instances the in vitro diffusion cell technique or the in vivo rhesus monkey test earlier described were used. In all instances analysis was by conventional HPLC (high pressure liquid chromatography). Details and citations are given for illustrative techniques.
To this solution was added 120 mg of hydroxypropylcellulose (Klucel® HF). […]

The conditions of series [1]: man; therapeutic oral doses; Kaplan et al 1973; cited from earlier work.
Setting [2] is: topical or ocular, In Vivo monkey plasma level.
Setting [3] is: topical or ocular, Monkey Plasma Level.

As to `CN1C(=O)CN=C(c2ccccc2)c2cc(Cl)ccc21` [Diazepam, 7-Chloro-1,3-dihydro-1-methyl-5-phenyl-2H-1,4-benzodiazepine-2-one], the concentration at 1 h in the series “in vivo” (po, Diazepam Plasma Level) was 50 ng/mL; in the series “in vivo” (setting [2]) it was 116 ng/mL; in the series “in vivo” (setting [3]) it was 35 ng/mL. The concentration at 5 h in “in vivo” (po, Diazepam Plasma Level) is 34 ng/mL; in “in vivo” (setting [2]) it was 33 ng/mL; in the series “in vivo” (setting [3]), 37 ng/mL. For the same compound, the “Monkey Plasma Level” value in “in vivo” (topical or ocular, 3 h) came out at 42 ng/mL; in “in vivo” (topical or ocular, 7 h), 30 ng/mL. For the same compound, the concentration at 2 h in the series “in vivo” (topical or ocular, Diazepam Plasma Level) turned out to be 181 ng/mL. In addition, the concentration at 3 h was found to be 57 ng/mL in the series “in vivo” (setting [2]) and 36 ng/mL in the series “in vivo” (setting [3]). For the same compound, the concentration at 7 h in the series “in vivo” (setting [2]) was found to be 29 ng/mL; in “in vivo” (setting [3]) it was 19 ng/mL. Besides, in series [1], the blood levels entry is “approximately 100 ng/ml plasma”.
